Data on 4 molecules can be found in doi:10.1101/2020.12.14.422803.

Results are given in words; binding and its absence hold for the method and conditions named. Sequences can lack the tags named with a protein.

The chains are these.
B1: RecR (M. xanthus), yeast two-hybrid fusion (protein, UniProt Q1DAZ9 1-197)
chain: MTPDPLNRLVAQLAKLPGIGEKTAQRLAFHILRAPGEYAAELSQAIREVKEKVHLCVRCFSLTDAETCNFCRDARRDERVLCVVETFADLMALERTREFKGRYHVLHGVLSPLEGVGPDQLRIRELLERLNDSRVEELILATNPDVEGEATALYLTRLLKPMGLRVTRIAQGLPMGGDLEFADQATLAKALSARRDL
B2: RecF (M. xanthus), yeast two-hybrid fusion (protein, UniProt Q1DFP6 1-380)
chain: MRLLALHVHDFRNLPQVQLTPSAHATIAVGQNGQGKTNLLEALYFLATLKPLRAGRLSELVRWGSQGARVTGRFLLKGAEREIAVEVGGGTRQAFVDGKKASSLEDYFGGVSVVAFTPDDLEVVKGGPDSRRGFLDRAVFNRFPAFLRESREYARALKNRNRLLREGHTVDAVYLEAYDETLAKAGARIYSRRRALMAELAPRAQATFASIGRTVDPAVYNYRPAHLEGDFAAADETALAAMLRESLSARLRRDMERGFTSVGPHSDDVSVTLGGRSARAYASQGQQRALVLGWKIAEIENLEAAMGFLPLLLLDDVSSELDPERNAYLMGYLAQSGAQVVLTTTDGSLVRGAAADDTLWLDVHGGQVAVRADAEPPPAN
B3: LexA (M. xanthus), yeast two-hybrid fusion (protein, UniProt Q1D406 1-222)
chain: MEELTERQREILSFIVKETETRGFPPTIREIGEHMDIRSTNGVNDHLKALERKGYLNRGEQQSRSLVATKRARLLLGLGARKDSGMVEIPLLGKVAAGAPLLAQENMEDSVKIDSFLLGGVNGREVFALRVKGQSMIDDGIHDGDYLFVKKTPSAQPGEIVVALIEDEATVKRYYPEGDRIRFQPANATMQPIYVSRAEFRSTMILGQVVGVYRKLQGGRTP
B4: RecO (M. xanthus), yeast two-hybrid fusion (protein, UniProt Q1D7T4 1-244)
chain: MERYDDDALVLSSVDYGESDRLVTLLTREHGKLTAFAAGARKSKRRFAGALEPFMRLRVHIVETRGSTVRLDGTDIVAGFYAAREDLSLIARALYAVELCRELTRDHEPQPELFALLESYLTRLDAKEAGPTSLLAFELSALAHAGLMPRFDSCSLCGGAPGERPRFDQAHGGAVCEPCGVRARESVAVPVALLSGLRALQEGARTPLPPELRARARGLLNVFIAHHLGRRLKSVDFMAQVGLD

The target in the test is ImuA (M. xanthus), yeast two-hybrid fusion (Myxococcus xanthus DK1622). Kind of test: two-hybrid.
For B1, the binding result is “no binding”. The same measure for B2: “no binding”. The same measure for B3: “no binding”; for B4: “no binding”.
